This is one part of the list.
Columns and labels:
Experiment in all cases: glycan array binding signal (z-score within array); higher = stronger binding
Settings in all cases: glycan notation: IUPAC condensed, linker removed
[1] = molecular target: Fuc(a1-2)[Gal(a1-3)]Gal(b1-4)GlcNAc(b1-2)Man(a1-3)[Fuc(a1-2)[Gal(a1-3)]Gal(b1-4)GlcNAc(b1-2)Man(a1-6)]Man(b1-4)GlcNAc(b1-4)GlcNAc
Method in brief: (§1)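 The Consortium for Functional Glycomics database supplied 3228 glycan arrays, of which those lacking an available protein sequence were dropped. The binding signal, a within-array Z-score, was averaged across arrays of the same protein sequence and across linkers. Negative scores can be read as non-binding.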

[2] = molecular target: Fuc(a1-2)[Gal(a1-3)]Gal(b1-4)GlcNAc(b1-2)Man(a1-3)[Fuc(a1-2)[Gal(a1-3)]Gal(b1-4)GlcNAc(b1-2)Man(a1-6)]Man(b1-4)GlcNAc(b1-4)[Fuc(a1-6)]GlcNAc
Method in brief: as §1

[3] = molecular target: Fuc(a1-2)[Gal(a1-3)]Gal(b1-4)GlcNAc(b1-3)GalNAc
Method in brief: as §1

[4] = molecular target: Fuc(a1-2)[Gal(a1-3)]Gal(b1-4)GlcNAc(b1-3)[Fuc(a1-2)[Gal(a1-3)]Gal(b1-4)GlcNAc(b1-6)]GalNAc
Method in brief: as §1

[5] = molecular target: Fuc(a1-2)[Gal(a1-3)]Gal(b1-4)GlcNAc(b1-6)GalNAc
Method in brief: as §1

[6] = molecular target: Fuc(a1-2)[Gal(a1-3)]Gal(b1-4)[Fuc(a1-3)]Glc
Method in brief: as §1

[7] = molecular target: Fuc(a1-2)[Gal(a1-3)]Gal(b1-4)[Fuc(a1-3)]GlcNAc
Method in brief: as §1

[8] = molecular target: Fuc(a1-2)[Gal(a1-3)]Gal(b1-4)[Fuc(a1-3)]GlcNAc(b1-3)GalNAc
Method in brief: as §1

[9] = molecular target: Fuc(a1-2)[Gal(a1-4)]Gal(b1-4)GlcNAc
Method in brief: as §1

[10] = molecular target: Fuc(a1-2)[GalNAc(a1-3)]Gal
Method in brief: as §1

[11] = molecular target: Fuc(a1-2)[GalNAc(a1-3)]Gal(b1-3)GalNAc(a1-3)[Fuc(a1-2)]Gal(b1-4)GlcNAc
Method in brief: as §1

[12] = molecular target: Fuc(a1-2)[GalNAc(a1-3)]Gal(b1-3)GalNAc(b1-3)Gal(a1-4)Gal(b1-4)Glc
Method in brief: as §1

[13] = molecular target: Fuc(a1-2)[GalNAc(a1-3)]Gal(b1-3)GlcNAc
Method in brief: as §1

[14] = molecular target: Fuc(a1-2)[GalNAc(a1-3)]Gal(b1-3)GlcNAc(b1-2)Man(a1-3)[Fuc(a1-2)[GalNAc(a1-3)]Gal(b1-3)GlcNAc(b1-2)Man(a1-6)]Man(b1-4)GlcNAc(b1-4)GlcNAc
Method in brief: as §1

[15] = molecular target: Fuc(a1-2)[GalNAc(a1-3)]Gal(b1-3)GlcNAc(b1-2)Man(a1-3)[Fuc(a1-2)[GalNAc(a1-3)]Gal(b1-3)GlcNAc(b1-2)Man(a1-6)]Man(b1-4)GlcNAc(b1-4)[Fuc(a1-6)]GlcNAc
Method in brief: as §1

[16] = molecular target: Fuc(a1-2)[GalNAc(a1-3)]Gal(b1-3)GlcNAc(b1-3)GalNAc
Method in brief: as §1

[17] = molecular target: Fuc(a1-2)[GalNAc(a1-3)]Gal(b1-3)GlcNAc(b1-6)GalNAc
Method in brief: as §1

[18] = molecular target: Fuc(a1-2)[GalNAc(a1-3)]Gal(b1-4)Glc
Method in brief: as §1

[19] = molecular target: Fuc(a1-2)[GalNAc(a1-3)]Gal(b1-4)GlcNAc
Method in brief: as §1

[20] = molecular target: Fuc(a1-2)[GalNAc(a1-3)]Gal(b1-4)GlcNAc(b1-2)Man
Method in brief: as §1

[21] = molecular target: Fuc(a1-2)[GalNAc(a1-3)]Gal(b1-4)GlcNAc(b1-2)Man(a1-3)[Fuc(a1-2)[GalNAc(a1-3)]Gal(b1-4)GlcNAc(b1-2)Man(a1-6)]Man(b1-4)GlcNAc(b1-4)GlcNAc
Method in brief: as §1

[22] = molecular target: Fuc(a1-2)[GalNAc(a1-3)]Gal(b1-4)GlcNAc(b1-2)Man(a1-3)[Fuc(a1-2)[GalNAc(a1-3)]Gal(b1-4)GlcNAc(b1-2)Man(a1-6)]Man(b1-4)GlcNAc(b1-4)[Fuc(a1-6)]GlcNAc
Method in brief: as §1

[23] = molecular target: Fuc(a1-2)[GalNAc(a1-3)]Gal(b1-4)GlcNAc(b1-3)Gal(b1-4)GlcNAc
Method in brief: as §1

[24] = molecular target: Fuc(a1-2)[GalNAc(a1-3)]Gal(b1-4)GlcNAc(b1-3)Gal(b1-4)GlcNAc(b1-3)Gal(b1-4)GlcNAc
Method in brief: as §1

[25] = molecular target: Fuc(a1-2)[GalNAc(a1-3)]Gal(b1-4)GlcNAc(b1-3)GalNAc
Method in brief: as §1

[26] = molecular target: Fuc(a1-2)[GalNAc(a1-3)]Gal(b1-4)GlcNAc(b1-3)[Fuc(a1-2)[GalNAc(a1-3)]Gal(b1-4)GlcNAc(b1-6)]GalNAc
Method in brief: as §1

[27] = molecular target: Fuc(a1-2)[GalNAc(a1-3)]Gal(b1-4)GlcNAc(b1-6)GalNAc
Method in brief: as §1

[28] = molecular target: Fuc(a1-2)[GalNAc(a1-3)]Gal(b1-4)[Fuc(a1-3)]GlcNAc
Method in brief: as §1

[29] = molecular target: Fuc(a1-2)[GalNAc(a1-3)]Gal(b1-4)[Fuc(a1-3)]GlcNAc(b1-3)GalNAc
Method in brief: as §1

[30] = molecular target: Fuc(a1-2)[GalNAc(a1-4)]Gal(b1-4)GlcNAc
Method in brief: as §1

[31] = molecular target: Fuc(a1-2)[GalNAc(b1-3)]Gal
Method in brief: as §1

Fuc(a1-3)GlcNAc = molecular target: Fuc(a1-3)GlcNAc
Method in brief: as §1

[32] = molecular target: Fuc(a1-3)[Gal(b1-4)]Glc6S
Method in brief: as §1

[33] = molecular target: Fuc(a1-3)[Gal(b1-4)]GlcNAc
Method in brief: as §1

[34] = molecular target: Fuc(a1-3)[Gal(b1-4)]GlcNAc(b1-2)Man
Method in brief: as §1

[35] = molecular target: Fuc(a1-3)[Gal(b1-4)]GlcNAc(b1-2)Man(a1-3)[Fuc(a1-3)[Gal(b1-4)]GlcNAc(b1-2)Man(a1-6)]Man(b1-4)GlcNAc(b1-4)GlcNAc
Method in brief: as §1

[36] = molecular target: Fuc(a1-3)[Gal(b1-4)]GlcNAc(b1-2)Man(a1-3)[Fuc(a1-3)[Gal(b1-4)]GlcNAc(b1-2)Man(a1-6)]Man(b1-4)GlcNAc(b1-4)[Fuc(a1-6)]GlcNAc
Method in brief: as §1

[37] = molecular target: Fuc(a1-3)[Gal(b1-4)]GlcNAc(b1-3)Gal(b1-3)[Fuc(a1-4)]GlcNAc
Method in brief: as §1

[38] = molecular target: Fuc(a1-3)[Gal(b1-4)]GlcNAc(b1-3)Gal(b1-4)[Fuc(a1-3)]GlcNAc
Method in brief: as §1

[39] = molecular target: Fuc(a1-3)[Gal(b1-4)]GlcNAc(b1-3)Gal(b1-4)[Fuc(a1-3)]GlcNAc(b1-3)Gal(b1-4)[Fuc(a1-3)]GlcNAc
Method in brief: as §1

[40] = molecular target: Fuc(a1-3)[Gal(b1-4)]GlcNAc(b1-3)GalNAc
Method in brief: as §1

[41] = molecular target: Fuc(a1-3)[Gal(b1-4)]GlcNAc(b1-6)GalNAc
Method in brief: as §1

[42] = molecular target: Fuc(a1-3)[Gal(b1-4)]GlcNAc(b1-6)[Gal(b1-3)GlcNAc(b1-3)]Gal(b1-4)Glc
Method in brief: as §1

[43] = molecular target: Fuc(a1-3)[Gal(b1-4)]GlcNAc6S
Method in brief: as §1

[44] = molecular target: Fuc(a1-3)[Gal3S(b1-4)]Glc
Method in brief: as §1

[45] = molecular target: Fuc(a1-3)[Gal3S(b1-4)]GlcNAc
Method in brief: as §1

[46] = molecular target: Fuc(a1-3)[Gal3S(b1-4)]GlcNAc6S
Method in brief: as §1

[47] = molecular target: Fuc(a1-3)[GalNAc(b1-4)]GlcNAc
Method in brief: as §1

[48] = molecular target: Fuc(a1-3)[GalNAc(b1-4)]GlcNAc6S
Method in brief: as §1

Fuc(a1-4)GlcNAc = molecular target: Fuc(a1-4)GlcNAc
Method in brief: as §1

Fuc(b1-3)GlcNAc = molecular target: Fuc(b1-3)GlcNAc
Method in brief: as §1

Gal(a1-2)Gal = molecular target: Gal(a1-2)Gal
Method in brief: as §1

Gal(a1-3)Gal = molecular target: Gal(a1-3)Gal
Method in brief: as §1

Gal(a1-3)Gal(b1-3)GlcNAc = molecular target: Gal(a1-3)Gal(b1-3)GlcNAc
Method in brief: as §1

[49] = molecular target: Gal(a1-3)Gal(b1-3)GlcNAc(b1-2)Man
Method in brief: as §1

[50] = molecular target: Gal(a1-3)Gal(b1-3)GlcNAc(b1-2)Man(a1-3)[Gal(a1-3)Gal(b1-3)GlcNAc(b1-2)Man(a1-6)]Man(b1-4)GlcNAc(b1-4)GlcNAc
Method in brief: as §1

[51] = molecular target: Gal(a1-3)Gal(b1-3)GlcNAc(b1-3)GalNAc
Method in brief: as §1

[52] = molecular target: Gal(a1-3)Gal(b1-3)GlcNAc(b1-6)GalNAc
Method in brief: as §1

[53] = molecular target: Gal(a1-3)Gal(b1-3)[Fuc(a1-4)]GlcNAc(b1-2)Man(a1-3)[Gal(a1-3)Gal(b1-3)[Fuc(a1-4)]GlcNAc(b1-2)Man(a1-6)]Man(b1-4)GlcNAc(b1-4)GlcNAc
Method in brief: as §1

Gal(a1-3)Gal(b1-4)Glc = molecular target: Gal(a1-3)Gal(b1-4)Glc
Method in brief: as §1

B1: XTP3-B-MRH2 (Homo sapiens), Q96DZ1 (protein)
chain: EFLSGSYCFRGGVGWWKYEFCYGKHVHQYHEDKDSGKTSVVVGTWNQEEHIEWAKKNTARAYHLQDDGTQTVRMVSHFYGNGDICDITDKPRQVTVKLKCKESDSPHAVTVYMLEPHSCQYILGVESPVICKILDTA
glycan array binding signal (z-score) [1]: 2.95 | glycan array binding signal (z-score) [2]: -1.76 | glycan array binding signal (z-score) [3]: -0.169 | glycan array binding signal (z-score) [4]: 1.8 | glycan array binding signal (z-score) [5]: -0.292 | glycan array binding signal (z-score) [6]: -0.501 | glycan array binding signal (z-score) [7]: -0.641 | glycan array binding signal (z-score) [8]: -0.696 | glycan array binding signal (z-score) [9]: -0.663 | glycan array binding signal (z-score) [10]: 0.338 | glycan array binding signal (z-score) [11]: -0.387 | glycan array binding signal (z-score) [12]: -0.923 | glycan array binding signal (z-score) [13]: 0.198 | glycan array binding signal (z-score) [14]: -0.31 | glycan array binding signal (z-score) [15]: -0.127 | glycan array binding signal (z-score) [16]: -1.41 | glycan array binding signal (z-score) [17]: 0.161 | glycan array binding signal (z-score) [18]: 1.2 | glycan array binding signal (z-score) [19]: -0.054 | glycan array binding signal (z-score) [20]: -0.41 | glycan array binding signal (z-score) [21]: -0.577 | glycan array binding signal (z-score) [22]: -0.79 | glycan array binding signal (z-score) [23]: -0.677 | glycan array binding signal (z-score) [24]: 0.442 | glycan array binding signal (z-score) [25]: 0.028 | glycan array binding signal (z-score) [26]: -1.11 | glycan array binding signal (z-score) [27]: -0.35 | glycan array binding signal (z-score) [28]: -0.177 | glycan array binding signal (z-score) [29]: 0.842 | glycan array binding signal (z-score) [30]: -0.124 | glycan array binding signal (z-score) [31]: -0.007 | glycan array binding signal (z-score) (Fuc(a1-3)GlcNAc): -1.66 | glycan array binding signal (z-score) [32]: -0.069 | glycan array binding signal (z-score) [33]: 0.581 | glycan array binding signal (z-score) [34]: 0.257 | glycan array binding signal (z-score) [35]: 0.744 | glycan array binding signal (z-score) [36]: -1.2 | glycan array binding signal (z-score) [37]: -2.1 | glycan array binding signal (z-score) [38]: 1.19 | glycan array binding signal (z-score) [39]: 0.176 | glycan array binding signal (z-score) [40]: -0.079 | glycan array binding signal (z-score) [41]: 0.421 | glycan array binding signal (z-score) [42]: -0.283 | glycan array binding signal (z-score) [43]: -0.412 | glycan array binding signal (z-score) [44]: -0.439 | glycan array binding signal (z-score) [45]: 0.047 | glycan array binding signal (z-score) [46]: -0.011 | glycan array binding signal (z-score) [47]: 1.43 | glycan array binding signal (z-score) [48]: -0.79 | glycan array binding signal (z-score) (Fuc(a1-4)GlcNAc): 2.2 | glycan array binding signal (z-score) (Fuc(b1-3)GlcNAc): -0.321 | glycan array binding signal (z-score) (Gal(a1-2)Gal): -1.11 | glycan array binding signal (z-score) (Gal(a1-3)Gal): 0.656 | glycan array binding signal (z-score) (Gal(a1-3)Gal(b1-3)GlcNAc): -0.706 | glycan array binding signal (z-score) [49]: -1.95 | glycan array binding signal (z-score) [50]: 0.762 | glycan array binding signal (z-score) [51]: -0.736 | glycan array binding signal (z-score) [52]: -0.122 | glycan array binding signal (z-score) [53]: 0.09 | glycan array binding signal (z-score) (Gal(a1-3)Gal(b1-4)Glc): 0.965

Source: the supplement of paper PMC8728848
